The list shows a part of the results.

Protein sequences, listed by entry. Tags and fused reporters are not part of them. Lines headed by an entry give the natural chain unless they say otherwise; changes in a name come on top.
UniProt Q9HCP0: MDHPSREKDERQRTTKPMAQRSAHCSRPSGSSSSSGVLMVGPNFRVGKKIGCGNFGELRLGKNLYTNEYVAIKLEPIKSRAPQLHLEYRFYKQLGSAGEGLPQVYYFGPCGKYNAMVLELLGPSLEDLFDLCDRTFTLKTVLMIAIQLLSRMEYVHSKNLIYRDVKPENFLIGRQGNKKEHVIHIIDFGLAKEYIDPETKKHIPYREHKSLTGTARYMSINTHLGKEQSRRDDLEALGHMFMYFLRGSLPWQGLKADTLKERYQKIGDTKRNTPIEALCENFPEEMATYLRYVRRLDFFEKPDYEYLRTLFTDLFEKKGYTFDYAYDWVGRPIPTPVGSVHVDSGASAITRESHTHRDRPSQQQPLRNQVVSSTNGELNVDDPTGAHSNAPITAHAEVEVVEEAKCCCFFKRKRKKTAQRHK
UniProt P01036: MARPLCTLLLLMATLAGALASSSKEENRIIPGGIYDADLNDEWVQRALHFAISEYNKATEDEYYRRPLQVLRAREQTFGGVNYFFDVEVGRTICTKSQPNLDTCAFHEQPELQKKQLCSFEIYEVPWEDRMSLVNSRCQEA
UniProt P00167, whole entry, looked up: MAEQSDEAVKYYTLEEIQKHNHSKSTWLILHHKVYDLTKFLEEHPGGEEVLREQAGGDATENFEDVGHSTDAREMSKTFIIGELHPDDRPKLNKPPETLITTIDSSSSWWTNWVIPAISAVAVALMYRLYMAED
UniProt Q9BQA9: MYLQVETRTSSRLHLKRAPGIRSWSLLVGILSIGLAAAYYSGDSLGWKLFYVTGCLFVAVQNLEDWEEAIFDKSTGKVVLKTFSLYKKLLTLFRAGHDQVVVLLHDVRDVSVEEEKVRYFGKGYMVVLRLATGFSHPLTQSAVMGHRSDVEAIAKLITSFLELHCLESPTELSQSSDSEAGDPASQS
UniProt Q9Y600: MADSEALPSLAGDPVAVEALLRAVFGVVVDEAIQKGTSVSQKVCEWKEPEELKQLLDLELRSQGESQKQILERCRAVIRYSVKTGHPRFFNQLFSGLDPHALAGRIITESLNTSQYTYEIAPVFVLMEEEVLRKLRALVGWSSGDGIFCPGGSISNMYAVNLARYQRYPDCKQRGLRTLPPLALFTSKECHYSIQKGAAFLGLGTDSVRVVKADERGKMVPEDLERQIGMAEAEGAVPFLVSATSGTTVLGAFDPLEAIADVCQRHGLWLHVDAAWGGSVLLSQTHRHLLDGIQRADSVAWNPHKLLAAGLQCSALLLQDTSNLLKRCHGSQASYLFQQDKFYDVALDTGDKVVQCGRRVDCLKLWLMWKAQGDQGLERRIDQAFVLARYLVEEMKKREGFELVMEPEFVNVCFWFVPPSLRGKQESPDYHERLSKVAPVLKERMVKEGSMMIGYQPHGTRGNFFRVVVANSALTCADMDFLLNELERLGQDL
UniProt H7BZ55: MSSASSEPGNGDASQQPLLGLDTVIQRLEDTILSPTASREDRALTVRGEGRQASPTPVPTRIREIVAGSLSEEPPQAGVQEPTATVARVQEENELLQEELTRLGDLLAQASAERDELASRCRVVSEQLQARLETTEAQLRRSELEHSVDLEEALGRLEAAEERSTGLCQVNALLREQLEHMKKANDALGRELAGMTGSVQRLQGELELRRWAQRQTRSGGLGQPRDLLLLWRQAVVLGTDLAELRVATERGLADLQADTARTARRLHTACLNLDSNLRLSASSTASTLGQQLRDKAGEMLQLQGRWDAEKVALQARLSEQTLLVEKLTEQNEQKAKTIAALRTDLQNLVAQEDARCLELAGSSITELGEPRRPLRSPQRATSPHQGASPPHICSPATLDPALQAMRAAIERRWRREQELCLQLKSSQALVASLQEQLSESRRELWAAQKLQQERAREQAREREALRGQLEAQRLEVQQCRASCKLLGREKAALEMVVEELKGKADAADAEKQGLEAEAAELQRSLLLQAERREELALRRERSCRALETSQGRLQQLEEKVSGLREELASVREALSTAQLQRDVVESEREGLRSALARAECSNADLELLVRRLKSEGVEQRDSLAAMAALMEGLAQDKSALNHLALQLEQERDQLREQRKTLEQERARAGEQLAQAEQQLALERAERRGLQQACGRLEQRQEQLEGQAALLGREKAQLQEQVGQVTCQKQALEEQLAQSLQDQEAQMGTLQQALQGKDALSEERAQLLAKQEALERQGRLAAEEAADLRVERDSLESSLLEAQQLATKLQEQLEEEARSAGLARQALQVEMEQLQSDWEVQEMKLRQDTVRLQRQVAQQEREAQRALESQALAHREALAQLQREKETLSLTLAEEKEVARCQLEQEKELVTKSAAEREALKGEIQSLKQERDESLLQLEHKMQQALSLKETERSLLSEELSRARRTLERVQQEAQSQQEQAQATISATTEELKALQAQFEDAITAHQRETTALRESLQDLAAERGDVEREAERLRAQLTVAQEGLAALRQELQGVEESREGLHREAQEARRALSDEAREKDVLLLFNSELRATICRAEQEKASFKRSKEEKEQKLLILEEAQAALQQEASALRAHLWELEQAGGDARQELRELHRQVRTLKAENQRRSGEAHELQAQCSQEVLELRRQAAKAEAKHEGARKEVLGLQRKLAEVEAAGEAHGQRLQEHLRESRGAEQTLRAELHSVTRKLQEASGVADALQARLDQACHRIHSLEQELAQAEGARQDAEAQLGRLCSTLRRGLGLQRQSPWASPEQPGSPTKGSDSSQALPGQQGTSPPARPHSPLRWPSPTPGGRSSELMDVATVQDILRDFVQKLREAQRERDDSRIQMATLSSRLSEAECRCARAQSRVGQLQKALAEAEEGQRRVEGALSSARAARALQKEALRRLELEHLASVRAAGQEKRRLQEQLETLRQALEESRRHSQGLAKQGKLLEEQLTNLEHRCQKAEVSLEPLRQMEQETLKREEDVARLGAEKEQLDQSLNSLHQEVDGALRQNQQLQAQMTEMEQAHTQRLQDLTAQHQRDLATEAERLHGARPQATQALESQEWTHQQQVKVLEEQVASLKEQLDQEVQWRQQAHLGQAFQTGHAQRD
UniProt Q8IWT3: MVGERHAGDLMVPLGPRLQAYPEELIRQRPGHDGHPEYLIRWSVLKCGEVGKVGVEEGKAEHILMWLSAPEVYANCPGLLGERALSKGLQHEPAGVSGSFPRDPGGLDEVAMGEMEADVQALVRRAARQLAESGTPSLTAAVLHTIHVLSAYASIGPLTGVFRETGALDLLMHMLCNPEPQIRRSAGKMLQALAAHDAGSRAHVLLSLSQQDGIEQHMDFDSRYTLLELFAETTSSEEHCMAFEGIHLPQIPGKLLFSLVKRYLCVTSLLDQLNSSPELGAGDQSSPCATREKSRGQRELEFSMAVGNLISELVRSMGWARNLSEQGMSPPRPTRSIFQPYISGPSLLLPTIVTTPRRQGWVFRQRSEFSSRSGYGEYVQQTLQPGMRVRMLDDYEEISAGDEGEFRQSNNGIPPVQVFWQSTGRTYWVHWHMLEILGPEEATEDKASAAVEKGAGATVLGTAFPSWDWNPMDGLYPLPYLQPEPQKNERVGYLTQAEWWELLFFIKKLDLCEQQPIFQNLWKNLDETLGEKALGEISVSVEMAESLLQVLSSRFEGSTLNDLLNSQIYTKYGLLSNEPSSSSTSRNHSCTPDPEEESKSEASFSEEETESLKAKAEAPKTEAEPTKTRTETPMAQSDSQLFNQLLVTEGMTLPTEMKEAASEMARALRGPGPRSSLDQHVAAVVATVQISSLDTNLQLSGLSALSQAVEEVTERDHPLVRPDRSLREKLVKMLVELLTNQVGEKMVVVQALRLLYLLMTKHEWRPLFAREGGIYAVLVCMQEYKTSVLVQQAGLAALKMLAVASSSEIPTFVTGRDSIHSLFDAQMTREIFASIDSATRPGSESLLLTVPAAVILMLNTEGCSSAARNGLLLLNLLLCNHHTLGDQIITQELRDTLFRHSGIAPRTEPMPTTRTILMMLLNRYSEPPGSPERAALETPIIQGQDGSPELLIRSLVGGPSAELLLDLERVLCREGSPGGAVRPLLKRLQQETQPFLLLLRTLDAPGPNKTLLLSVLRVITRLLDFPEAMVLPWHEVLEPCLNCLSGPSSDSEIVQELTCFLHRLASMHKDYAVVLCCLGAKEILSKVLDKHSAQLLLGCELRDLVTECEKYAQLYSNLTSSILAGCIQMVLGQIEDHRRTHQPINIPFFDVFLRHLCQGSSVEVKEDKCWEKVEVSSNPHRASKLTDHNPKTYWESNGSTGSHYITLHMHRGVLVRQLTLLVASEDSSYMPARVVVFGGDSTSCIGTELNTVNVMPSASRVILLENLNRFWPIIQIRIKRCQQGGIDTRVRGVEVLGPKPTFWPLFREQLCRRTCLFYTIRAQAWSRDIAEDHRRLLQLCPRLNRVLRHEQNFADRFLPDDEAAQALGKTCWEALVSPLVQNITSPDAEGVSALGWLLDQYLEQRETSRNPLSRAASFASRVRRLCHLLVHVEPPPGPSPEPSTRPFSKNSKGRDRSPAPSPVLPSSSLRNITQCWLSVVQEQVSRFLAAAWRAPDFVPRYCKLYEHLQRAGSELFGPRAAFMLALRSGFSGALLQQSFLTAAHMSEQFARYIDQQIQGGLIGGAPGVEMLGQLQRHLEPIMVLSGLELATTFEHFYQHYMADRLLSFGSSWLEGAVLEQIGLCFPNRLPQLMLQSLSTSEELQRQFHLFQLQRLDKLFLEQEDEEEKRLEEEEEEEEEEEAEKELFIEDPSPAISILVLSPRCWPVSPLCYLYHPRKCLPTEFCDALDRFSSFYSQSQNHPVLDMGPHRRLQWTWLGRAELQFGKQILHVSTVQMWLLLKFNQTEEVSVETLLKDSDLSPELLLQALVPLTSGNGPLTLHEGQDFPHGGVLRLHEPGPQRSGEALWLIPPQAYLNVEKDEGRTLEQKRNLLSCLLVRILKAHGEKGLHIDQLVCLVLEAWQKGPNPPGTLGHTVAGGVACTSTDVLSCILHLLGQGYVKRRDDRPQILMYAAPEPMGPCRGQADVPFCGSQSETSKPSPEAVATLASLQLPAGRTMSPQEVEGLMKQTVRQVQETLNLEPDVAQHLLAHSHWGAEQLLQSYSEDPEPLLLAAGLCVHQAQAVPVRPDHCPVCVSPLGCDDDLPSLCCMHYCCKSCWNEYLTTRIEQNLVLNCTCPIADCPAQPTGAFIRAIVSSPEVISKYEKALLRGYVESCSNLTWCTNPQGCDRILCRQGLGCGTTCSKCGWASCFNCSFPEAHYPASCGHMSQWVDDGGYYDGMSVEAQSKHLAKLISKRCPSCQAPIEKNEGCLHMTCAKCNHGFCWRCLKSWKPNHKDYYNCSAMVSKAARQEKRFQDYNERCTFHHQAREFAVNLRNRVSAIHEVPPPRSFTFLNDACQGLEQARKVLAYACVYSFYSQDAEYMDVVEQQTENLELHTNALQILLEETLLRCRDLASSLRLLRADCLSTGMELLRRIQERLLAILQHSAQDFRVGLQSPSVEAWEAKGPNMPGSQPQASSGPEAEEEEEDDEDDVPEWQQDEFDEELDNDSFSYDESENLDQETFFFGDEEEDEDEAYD
UniProt Q14894: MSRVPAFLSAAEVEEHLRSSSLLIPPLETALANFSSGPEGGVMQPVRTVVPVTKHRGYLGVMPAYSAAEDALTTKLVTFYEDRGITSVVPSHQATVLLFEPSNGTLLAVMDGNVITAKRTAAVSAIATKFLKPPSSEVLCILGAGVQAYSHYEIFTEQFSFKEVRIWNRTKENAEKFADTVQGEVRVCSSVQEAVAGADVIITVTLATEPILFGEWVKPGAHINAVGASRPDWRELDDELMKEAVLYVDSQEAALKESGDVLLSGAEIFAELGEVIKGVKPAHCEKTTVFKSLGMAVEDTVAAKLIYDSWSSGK
UniProt Q9NXE8: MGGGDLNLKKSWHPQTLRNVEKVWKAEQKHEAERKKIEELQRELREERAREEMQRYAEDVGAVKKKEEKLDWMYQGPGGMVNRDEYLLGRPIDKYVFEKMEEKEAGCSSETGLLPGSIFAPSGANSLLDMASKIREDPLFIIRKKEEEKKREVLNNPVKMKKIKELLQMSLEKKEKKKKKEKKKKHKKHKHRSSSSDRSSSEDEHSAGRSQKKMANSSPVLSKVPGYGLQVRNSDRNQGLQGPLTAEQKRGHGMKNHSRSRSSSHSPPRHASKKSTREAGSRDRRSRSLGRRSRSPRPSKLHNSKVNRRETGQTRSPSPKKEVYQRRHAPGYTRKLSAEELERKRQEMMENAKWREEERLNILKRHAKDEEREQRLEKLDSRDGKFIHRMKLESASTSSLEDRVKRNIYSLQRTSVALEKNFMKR
UniProt O95715: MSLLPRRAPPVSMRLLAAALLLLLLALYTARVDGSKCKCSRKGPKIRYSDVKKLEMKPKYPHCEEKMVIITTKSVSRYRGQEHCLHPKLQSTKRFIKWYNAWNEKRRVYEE
UniProt Q96DE9: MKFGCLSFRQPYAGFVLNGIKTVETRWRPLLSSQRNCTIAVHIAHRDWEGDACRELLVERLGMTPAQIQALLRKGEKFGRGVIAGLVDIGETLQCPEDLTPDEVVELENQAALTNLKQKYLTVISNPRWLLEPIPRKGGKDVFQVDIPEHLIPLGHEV

Compound in the first assay: C#Cc1cccc(Nc2ncnc3cc(OCCOC)c(OCCOC)cc23)c1 [erlotinib]
As to the kind of experiment: log2 fold change, soluble protein after heating vs DMSO (PISA); higher = thermal stabilisation; K562 lysate, 10 uM; active = over 0.2 and 3.5 SD of the protein, either way, in both replicates (recomputed). In a few lines:
(§1)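 Following dounce homogenisation of K562 pellets in PBS pH 7.4 with 1 mM MgCl2, crude extract at 1 mg/mL protein was incubated for 30 min with 10 μM compound. Aliquots were then heated for 3 min over 48°C-58°C and pooled, NP-40 was added to 0.5% at 4°C, and soluble protein was recovered as the supernatant at 21,000xg for 90 min. Channel-sum-equalised TMTpro 16plex LC-MS/MS quantified this protein. Each value, from duplicates, is a log-two fold change in thermal stability relative to solvent controls.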
For CSNK1G1 (UniProt Q9HCP0), the log2 fold change is inactive: -0.246.

In the case of CRIP2 isoform 2 (UniProt P52943), the log2 fold change was inactive: 0.023.

CST1 (UniProt P01037): the log2 fold change was inactive: 0.185.

With CST4 (UniProt P01036), the log2 fold change is inactive: 0.079.

As for CYB5A (UniProt P00167), the log2 fold change is inactive: 0.015.

Consider CROT isoform 3 (UniProt Q9UKG9), for which the log2 fold change was inactive: 0.04.

CYBC1 (UniProt Q9BQA9): the log2 fold change is inactive: 0.002.

On to CSRNP2 (UniProt Q9H175), for which the log2 fold change is inactive: -0.049.

CROCCP2 (UniProt Q86T23): the log2 fold change was inactive: -0.025.

As for CSAD isoform 3 (UniProt Q9Y600), the log2 fold change is inactive: -0.02.

As for CTSS (UniProt P25774), the log2 fold change is inactive: -0.004.

With CTSG (UniProt P08311), the log2 fold change was inactive: 0.182.

In the case of CRLS1 (UniProt Q9UJA2), the log2 fold change was inactive: 0.074.

Consider CTSF (UniProt Q9UBX1), for which the log2 fold change was inactive: -0.006.

Turning to CROCC2 (UniProt H7BZ55), the log2 fold change was inactive: -0.066.

With CRISP3 isoform 3 (UniProt P54108), the log2 fold change was inactive: -0.578.

Consider CYLD (UniProt Q9NQC7), for which the log2 fold change was inactive: 0.029.

Turning to CS (UniProt F8VU34), the log2 fold change is inactive: 0.047.

In the case of CUL9 (UniProt Q8IWT3), the log2 fold change was inactive: -0.099.

Compound in a further assay: C/C(=N\NC(=O)C1=CC(=CC=C1)S(=O)(=O)N2CCOCC2)/C3=C(C=CC(=C3)Cl)O
Described as above. In a few lines: as §1
Consider CSNK1D (UniProt P48730), for which the log2 fold change was inactive: -0.32.

For the target CRYM (UniProt Q14894), the log2 fold change is inactive: -0.136.

On to CTTNBP2NL (UniProt Q9P2B4), for which the log2 fold change is inactive: 0.097.

For CRAMP1 (UniProt Q96RY5), the log2 fold change was inactive: -0.183.

With CTRB2 (UniProt Q6GPI1), the log2 fold change is inactive: 0.001.

CTIF (UniProt O43310): the log2 fold change is inactive: 0.193.

CWC25 (UniProt Q9NXE8): the log2 fold change is inactive: 0.043.

On to CRY2 (UniProt Q49AN0), for which the log2 fold change was inactive: 0.

Consider CRTC2 (UniProt H0YDQ8), for which the log2 fold change is inactive: 0.017.

As for CTNS isoform 2 (UniProt O60931), the log2 fold change is inactive: -0.124.

Consider CXCL14 (UniProt O95715), for which the log2 fold change is inactive: 0.119.

For the target CRNN (UniProt Q9UBG3), the log2 fold change was inactive: -1.2.

With CXorf40B (UniProt Q96DE9), the log2 fold change was inactive: 0.213.

Compound in the next assay: C1=CC(=CC=C1C2=NC3=C(N2)C=C(C=C3)C(=O)N)OC4=CC=C(C=C4)Cl
The assay is described as above. In a few lines: as §1
As to CSNK1G1 (UniProt Q9HCP0), the log2 fold change was inactive: 0.177.

Turning to CRIP2 isoform 2 (UniProt P52943), the log2 fold change is inactive: -0.125.

In the case of CST1 (UniProt P01037), the log2 fold change is inactive: -0.156.

In the case of CST4 (UniProt P01036), the log2 fold change was inactive: -0.108.

Turning to CYB5A (UniProt P00167), the log2 fold change was inactive: -0.027.

On to CROT isoform 3 (UniProt Q9UKG9), for which the log2 fold change was inactive: 0.14.

Take CYBC1 (UniProt Q9BQA9): the log2 fold change is inactive: -0.011.

In the case of CSRNP2 (UniProt Q9H175), the log2 fold change is inactive: -0.097.

On to CROCCP2 (UniProt Q86T23), for which the log2 fold change was inactive: 0.044.

On to CSAD isoform 3 (UniProt Q9Y600), for which the log2 fold change is inactive: 0.064.

As for CTSS (UniProt P25774), the log2 fold change is inactive: -0.289.

As for CTSG (UniProt P08311), the log2 fold change is inactive: -0.028.

Turning to CRLS1 (UniProt Q9UJA2), the log2 fold change was inactive: -0.085.

CTSF (UniProt Q9UBX1): the log2 fold change is inactive: 0.158.

Consider CROCC2 (UniProt H7BZ55), for which the log2 fold change was inactive: -0.09.

CRISP3 isoform 3 (UniProt P54108): the log2 fold change is inactive: -0.113.

Turning to CYLD (UniProt Q9NQC7), the log2 fold change was inactive: 0.043.

On to CS (UniProt F8VU34), for which the log2 fold change is inactive: 0.212.

As for CUL9 (UniProt Q8IWT3), the log2 fold change is inactive: 0.028.

Compound in another assay: C1=CC2=C(C=CC(=C2)/C=C\3/C(=O)NC(=NCC4=CC=CS4)S3)N=C1
The assay is described as above. Put shortly:
as §1
Take CSNK1D (UniProt P48730): the log2 fold change was inactive: -0.06.

Regarding CRYM (UniProt Q14894), the log2 fold change is inactive: -0.092.

As for CTTNBP2NL (UniProt Q9P2B4), the log2 fold change was inactive: -0.289.

For CRAMP1 (UniProt Q96RY5), the log2 fold change was inactive: 0.227.

Consider CTRB2 (UniProt Q6GPI1), for which the log2 fold change was inactive: -0.055.

CTIF (UniProt O43310): the log2 fold change was inactive: -0.232.

As to CWC25 (UniProt Q9NXE8), the log2 fold change is inactive: 0.038.

In the case of CRY2 (UniProt Q49AN0), the log2 fold change is inactive: -0.186.

Take CRTC2 (UniProt H0YDQ8): the log2 fold change is inactive: 0.057.

In the case of CTNS isoform 2 (UniProt O60931), the log2 fold change was inactive: -0.059.

For the target CXCL14 (UniProt O95715), the log2 fold change was inactive: -0.094.

Regarding CRNN (UniProt Q9UBG3), the log2 fold change was inactive: -0.562.

With CXorf40B (UniProt Q96DE9), the log2 fold change is inactive: 0.234.

Compound in a further assay: C1=CC2=NC=CN=C2C=C1/C=C/3\C(=O)NC(=O)S3
The description is as above. In a few lines: as §1
Regarding CSRP2 (UniProt Q16527), the log2 fold change is inactive: -0.097.

CSNK1G1 (UniProt Q9HCP0): the log2 fold change is inactive: 0.107.

Consider CRIP2 isoform 2 (UniProt P52943), for which the log2 fold change was inactive: 0.033.

In the case of CSDE1 isoform 3 (UniProt O75534), the log2 fold change was inactive: 0.13.

With CSNK1D (UniProt P48730), the log2 fold change is inactive: 0.039.

In the case of CST4 (UniProt P01036), the log2 fold change was inactive: -0.095.

In the case of CRYM (UniProt Q14894), the log2 fold change was inactive: -0.097.

CTTNBP2NL (UniProt Q9P2B4): the log2 fold change was inactive: -0.05.

On to CYB5A (UniProt P00167), for which the log2 fold change was inactive: -0.039.

Turning to CYBC1 (UniProt Q9BQA9), the log2 fold change is inactive: 0.019.

CWC25 (UniProt Q9NXE8): the log2 fold change is inactive: 0.

Take CTCFL isoform 7 (UniProt Q8NI51): the log2 fold change is inactive: -0.008.

For CSAD isoform 3 (UniProt Q9Y600), the log2 fold change was inactive: -0.115.

For the target CRLS1 (UniProt Q9UJA2), the log2 fold change is inactive: 0.087.

On to CTNS isoform 2 (UniProt O60931), for which the log2 fold change is inactive: 0.04.

Regarding CROCC2 (UniProt H7BZ55), the log2 fold change was inactive: -0.04.

With CXCL14 (UniProt O95715), the log2 fold change is inactive: -0.09.

On to CTDSP1 isoform 3 (UniProt Q9GZU7), for which the log2 fold change is inactive: -0.103.

Consider CXorf40B (UniProt Q96DE9), for which the log2 fold change was inactive: -0.12.

Regarding CREM isoform 1 (UniProt Q03060), the log2 fold change was inactive: 0.027.

Take CS (UniProt F8VU34): the log2 fold change was inactive: -0.151.

For the target CUL9 (UniProt Q8IWT3), the log2 fold change was inactive: 0.089.

These data come from the supplement of paper PMC10849652.
